Source: PubChem BioAssay AID504329 (Southern Research Specialized Biocontainment Screening …, 2011)
Among all 340,000 compounds or so, about 1,000 (0.29%) were called active. Inconclusive means that the source gave no clear call. Such entries were picked first, then a sample of the others. No stated cut-off is given here; in the data, inconclusive means inhibition above about 27% without an active follow-up result; inactive means below that.

Experiment: NS1A inhibition, H1N1 influenza, cell based functional assay (AID 504329)
Conditions: percent inhibition, at 12.5 µM, active compounds read high

| SMILES | inhibition |
| --- | --- |
| Cc1ccc2cc(/C=N/NC(=O)CN3CCCCC3)c(Cl)nc2c1 | inactive: 1.44% |
| Cn1c(=O)c(Nc2ccc(O)cc2)c2c3c(cccc31)C(=O)c1ccccc1-2 | inconclusive: 33.5% |
| CCN(CC)CCOC(=O)c1ccc(NC(=O)CCCN2C(=O)/C(=C/c3cccs3)SC2=S)cc1 | inconclusive: 30.8% |
| COc1ccc(C2CC(=O)Oc3c(C(CCN4CCCC(C)C4)c4ccc(N(C)C)cc4)c(OC)cc(OC)c32)cc1 (stereo not given) | inconclusive: 47.2% |
| Oc1c(CN2CCN(c3ccccn3)CC2)cc(Cl)c2cccnc12 | inconclusive: 81.2% |
| O=C(c1ccc(Cl)cc1)C1CCCN(Cc2cccc3cccnc23)C1 (stereo not given) | inactive: -0.71% |
| CN(C)c1ccc(Nc2c3c4c(cccc4n(C)c2=O)C(=O)c2ccccc2-3)cc1 | inconclusive: 39.7% |
| C/C(=N\NC(=O)c1nnn(-c2nonc2N)c1CN(C)c1ccccc1)c1ccccn1 | inconclusive: 79.1% |
| CC(=O)NC(c1cccs1)c1cc([N+](=O)[O-])c2cccnc2c1O (stereo not given) | inconclusive: 78.1% |
| CCN1/C(=C\C=C\C2=[N+](CC)c3ccccc3C2(C)C)C(C)(C)c2ccccc21 | inconclusive: 43% |
| CC(C)N1C(=O)/C(=C/C=C/c2ccco2)C(=O)N(Cc2ccco2)C1=O | inconclusive: 31.5% |
| CN(C)c1ccc(/C=C(\C#N)c2ccccc2)cc1 | inconclusive: 29.1% |
| CSC(SC)=C(C#N)C(=O)c1ccccc1 | inconclusive: 98.4% |
| CCN(CC)c1ccc(N=Cc2ccccc2[N+](=O)[O-])cc1 | inconclusive: 52.2% |
| C#CCOCCOCCOCCNc1nc(N2CCN(C(=O)CCCCCCCCCCNC(=O)Cn3cc(CCCCCN)nn3)CC2)nc(N2CCN(C(=O)CCCCCCCCCCNC(=O)[C@H]([C@@H](C)CC)n3cc(CCCCN=C(N)N)nn3)CC2)n1 | inconclusive: 32.6% |
| CCc1cc(=O)[nH]c(SCCc2ccccc2)n1 | inactive: 1.92% |
| CCn1cc(C(=O)NCc2ccc(OC)cc2)c(=O)c2ccc(C)nc21 | inactive: -3.98% |
| COc1ccc(OCc2nnc(SCC(N)=O)n2-c2ccccc2OC)cc1 | inactive: -0.95% |
| Nc1ccc(O)c2c1C(=O)c1ccccc1C2=O | inconclusive: 51.1% |
| COc1ccc(/C=C/C(=O)OCC(=O)Nc2cccc(C(C)=O)c2)cc1 | inactive: -8.13% |
| Oc1ccc2ccccc2c1N=Nc1nccs1 | inconclusive: 66.1% |
| O=c1ccc2cc3c([nH]c4ccc(Br)cc43)oc-2c1O | inconclusive: 49.3% |

| SMILES | inhibition |
| --- | --- |
| CN1CCN(C(c2cccnc2)c2ccc3cccnc3c2O)CC1 (stereo not given) | inconclusive: 37.6% |
| O=C(O)c1cccc2c1NC(C(=O)O)C1CC(Sc3ccccc3[N+](=O)[O-])C(Cl)C21 (stereo not given) | inconclusive: 47.3% |
| CN(/N=C/c1ccc([N+](=O)[O-])o1)c1ccccc1 | inconclusive: 32.7% |
| Cc1ccc(C)c(NC(=O)CCC(=O)N/N=C/c2cc([N+](=O)[O-])ccc2O)c1 | inactive: 8.85% |
| CCCN1/C(=C2/SC(=S)N(CC)C2=O)C=Cc2ccccc21 | inactive: -4.1% |
| CN(C)c1ccc(C(CN)c2c[nH]c3ccccc23)cc1 (stereo not given) | inconclusive: 63.4% |
| O=[N+]([O-])c1cc(CN2CCCC2)c2cccnc2c1O | inconclusive: 98.4% |
| CCN(CC)c1ccc(N=Cc2ccc([N+](=O)[O-])o2)cc1 | inconclusive: 53% |
| O=S(=O)(O)c1cc(O)c2c(O)c(N=Nc3cc(Cl)ccc3O)c(S(=O)(=O)O)cc2c1 | inconclusive: 42.6% |
| Oc1c(N=Nc2ccc(F)cc2)ccc2ccccc12 | inconclusive: 55.7% |
| COCCN(Cc1cc2cccc(C)c2n2nnnc12)C(=O)C(F)(F)F | inactive: -4.57% |
| CC1=C/C(=C(\c2cc(C)c(O)c(Br)c2)c2ccccc2S(=O)(=O)O)C=C(Br)C1=O | inconclusive: 34.7% |
| CC1N(C)c2cc(NC(=O)c3ccco3)c(P(=O)(Nc3ccc([N+](=O)[O-])cc3)N3CCOCC3)cc2C1(C)C (stereo not given) | inactive: 10.5% |
| NC(=O)c1ccnc2c(O)cccc12 | inconclusive: 48.5% |
| COc1cccc2c1C(=O)c1c(O)c3c(c(O)c1C2=O)C[C@@](O)(C(=O)CO)C[C@@H]3O[C@H]1C[C@H](N)[C@@H](O)[C@H](C)O1 | inconclusive: 30.2% |
| CCN(CC)c1ccc2c(-c3ccc(S(=O)(=O)O)cc3S(=O)(=O)[O-])c3ccc(=[N+](CC)CC)cc-3oc2c1 | inconclusive: 42.3% |
| NCCNCCNCCN | inconclusive: 32.2% |
| Cc1ccc(SCC(=O)Nc2ccc(F)cc2[N+](=O)[O-])cc1C | inconclusive: 31.5% |
| CCn1nc(C)c(CN2CCCCC2C(=O)Nc2ccc(Oc3cccnc3)cc2)c1C (stereo not given) | inconclusive: 30.1% |
| CC(C)OC(=O)C(C(=O)C(F)(F)F)c1cc(NS(=O)(=O)c2ccc3ccccc3c2)c2ccccc2c1O (stereo not given) | inconclusive: 34.1% |
| O=[N+]([O-])c1ccc(-[n+]2c(-c3ccccc3)cc(-c3ccccc3)cc2-c2ccccc2)cc1 | inactive: 0.94% |
| C=CC(=O)Nc1cccc(N(C)c2ccnc(Nc3ccc(N4CCN(C)CC4)cc3)n2)c1 | inconclusive: 48.9% |

| SMILES | inhibition |
| --- | --- |
| Cc1cccc(/C=N/NC(=O)c2ccc(NC(=O)c3ccccc3C)cc2)n1 | inactive: -6.91% |
| CCSc1nnc(NC(=O)c2cccnc2Cl)s1 | inactive: -1.92% |
| CN=c1scc(-c2ccc(F)cc2)n1/N=C/c1ccc(O)c(O)c1 | inconclusive: 29.8% |
| Cc1cc(C)nc(Nc2ccccc2Cl)n1 | inactive: -3.84% |
| Cc1ccc(N=Nc2cc(C)ccc2N)cc1 | inconclusive: 30.4% |
| COc1ccccc1N1CCN(Cc2cccc(OC)c2O)CC1 | inactive: 0.66% |
| Cc1ccc(C2C(/C=C3/SC(=S)NC3=O)=C(c3cccs3)Oc3ccccc32)cc1 (stereo not given) | inconclusive: 35.1% |
| Cc1ccccc1NC1=C/C(=N\S(=O)(=O)c2cccs2)c2ccccc2C1=O | inconclusive: 43.7% |
| Cc1ccc(-n2[nH]c(C)c(/C=N/Nc3ccc([N+](=O)[O-])cc3[N+](=O)[O-])c2=O)cc1C | inconclusive: 31.6% |
| Cc1nc2ccccc2nc1N/N=C/c1ccc(O)cc1 | inactive: 13.5% |
| O=C(COC(=O)c1ccccc1Oc1ccccc1)NCc1ccco1 | inconclusive: 33% |
| O=S(=O)(c1ccccc1)N1CCN(C2CCCCCCC2)CC1 | inactive: -3.77% |
| COc1cc(C=c2c3ccccc3n3c2cc(-c2ccccc2)[n+]3C)cc(OC)c1OC | inactive: 6.14% |
| CN1CC(C(=O)c2ccc(Cl)cc2)C(c2ccccc2)C1 (stereo not given) | inactive: -3.51% |
| CNC(=S)NN=C(C)CCCC(C)=NNC(=S)NC | inactive: -24.1% |
| CC(=C1C(=O)c2ccccc2C1=O)N1CCN(Cc2ccccc2)CC1 | inactive: -9.47% |
| Oc1c(Cl)cc(CN2CCCCC2)c2cccnc12 | inconclusive: 97.5% |
| CCN1c2ccccc2N(C)C1(C)c1ccccc1 (stereo not given) | inconclusive: 44.5% |
| C/C(=N\NC(=O)c1cc(C)nc2ccccc12)c1ccncc1 | inactive: 7.15% |
| Cc1ccc(S(=O)(=O)N2CCOCC2)cc1NC(=O)CSc1ccccn1 | inactive: -3.06% |
| Cc1[nH]n(-c2ccccc2)c(=O)c1/C=N/Nc1nncc(-c2ccccc2)n1 | inconclusive: 97.7% |
| COc1ccc2cc1Oc1ccc(cc1)CC1c3c(cc(OC)c4c3Oc3cc5c(cc3O4)CCNC5C2)CCN1C (stereo not given) | inconclusive: 34% |

Quoted from above, five compounds:

| SMILES | inhibition |
| --- | --- |
| CN1CC(C(=O)c2ccc(Cl)cc2)C(c2ccccc2)C1 (stereo not given) | inactive: -3.51% |
| CNC(=S)NN=C(C)CCCC(C)=NNC(=S)NC | inactive: -24.1% |
| CC(=C1C(=O)c2ccccc2C1=O)N1CCN(Cc2ccccc2)CC1 | inactive: -9.47% |
| Oc1c(Cl)cc(CN2CCCCC2)c2cccnc12 | inconclusive: 97.5% |
| CCN1c2ccccc2N(C)C1(C)c1ccccc1 (stereo not given) | inconclusive: 44.5% |

Following part.

| SMILES | inhibition |
| --- | --- |
| Cc1[nH]c2ccccc2c1C(C#N)(C#N)C1C(=O)c2ccccc2C1=O | inconclusive: 37.9% |
| CCCCNS(=O)(=O)c1cc(-c2nn(C)c(=O)c3ccccc23)ccc1C | inactive: -6.29% |
| CCN(CC)CCOC(=O)c1ccc(NC(=O)CCCN2C(=O)/C(=C\c3cccs3)SC2=S)cc1 | inconclusive: 35.3% |
| O=C(Cc1cccs1)Nc1nnc(SCC(=O)NC2CCCCC2)s1 | inactive: 3.29% |
| Oc1c(C(c2ccccn2)N2CCOCC2)ccc2cccnc12 (stereo not given) | inconclusive: 31% |
| Oc1c(N=Nc2ccccn2)ccc2ccccc12 | inconclusive: 38.4% |
| CC1CCC(NC(=O)CSc2nncs2)CC1 (stereo not given) | inactive: 1.05% |
| Oc1c(C(c2ccccc2Cl)N2CCCC2)ccc2cccnc12 (stereo not given) | inconclusive: 44.4% |
| COc1cc(/C=C2\SC(=O)N(c3cccc(Cl)c3)C2=O)cc([N+](=O)[O-])c1O | inconclusive: 29.6% |
| O=C(CN1CC(=O)Oc2ccccc21)OCC(=O)c1ccc(F)cc1 | inconclusive: 99.2% |
| CSCCC(NC(=O)c1ccccc1)C(=O)OCC(=O)Nc1ccc(C)c(Cl)c1 (stereo not given) | inactive: 0.6% |
| COc1ccccc1CNc1ncccc1[N+](=O)[O-] | inactive: -1.95% |
| O=C(N/N=C/c1cc([N+](=O)[O-])ccc1O)c1cccc2cc[nH]c12 | inconclusive: 13.5% |
| C#CCOCCOCCOCCNc1nc(N2CCN(C(=O)C(Cc3cc4ccccc4[nH]3)n3cc(C(N)C(C)CC)nn3)CC2)nc(N2CCN(C(=O)C(Cc3cc4ccccc4[nH]3)n3cc(C(N)C(C)CC)nn3)CC2)n1 (stereo not given) | inconclusive: 35.6% |
| CC(C)Nc1ccc(Nc2ccnc3cc4ccccc4cc23)cc1 | inconclusive: 52.1% |
| O=C1Nc2ccccc2C1=O | inactive: 0.1% |
| CC1NC(=O)NC1CCCCCC(=O)NCCc1ccccc1 (stereo not given) | inconclusive: 63.1% |
| S=C(N=Nc1ccccc1)NNc1ccccc1 | inconclusive: 32.3% |
| C=CC[C@@H](CC(=O)N[C@@H](CO)Cc1ccccc1)C(=O)N[C@H](C)COC(=O)[C@@H](CC=C)Cc1ccc(F)cc1 | inactive: -3.08% |

A different layout for 2 compounds above.
SMILES	inhibition
CN(C)c1ccc(/C=C(\C#N)c2ccccc2)cc1	inconclusive: 29.1%
CN(/N=C/c1ccc([N+](=O)[O-])o1)c1ccccc1	inconclusive: 32.7%
